# Data as given in the supplement of paper PMC12819154, “High-throughput peptide-centric local stability assay extends protein–ligand identification to membrane proteins, tissues and bacteria” (Nature Structural & Molecular Biology, 2025).
# Amino acid sequences for entries named in this document (tags omitted). A change or cut given only in a name is not applied to a line headed by its entry.
# UniProt Q9BY77: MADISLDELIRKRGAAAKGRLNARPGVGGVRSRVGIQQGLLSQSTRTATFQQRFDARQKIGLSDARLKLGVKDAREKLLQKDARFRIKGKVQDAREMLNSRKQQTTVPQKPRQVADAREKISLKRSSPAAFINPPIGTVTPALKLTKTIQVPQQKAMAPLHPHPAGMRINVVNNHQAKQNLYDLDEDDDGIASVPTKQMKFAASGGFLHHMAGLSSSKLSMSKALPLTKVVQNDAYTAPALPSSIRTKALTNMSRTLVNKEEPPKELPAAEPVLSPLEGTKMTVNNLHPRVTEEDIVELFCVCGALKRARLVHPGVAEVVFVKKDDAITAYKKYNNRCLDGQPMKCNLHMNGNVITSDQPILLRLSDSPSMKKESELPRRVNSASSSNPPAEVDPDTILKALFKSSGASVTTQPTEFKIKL
# UniProt Q9H116: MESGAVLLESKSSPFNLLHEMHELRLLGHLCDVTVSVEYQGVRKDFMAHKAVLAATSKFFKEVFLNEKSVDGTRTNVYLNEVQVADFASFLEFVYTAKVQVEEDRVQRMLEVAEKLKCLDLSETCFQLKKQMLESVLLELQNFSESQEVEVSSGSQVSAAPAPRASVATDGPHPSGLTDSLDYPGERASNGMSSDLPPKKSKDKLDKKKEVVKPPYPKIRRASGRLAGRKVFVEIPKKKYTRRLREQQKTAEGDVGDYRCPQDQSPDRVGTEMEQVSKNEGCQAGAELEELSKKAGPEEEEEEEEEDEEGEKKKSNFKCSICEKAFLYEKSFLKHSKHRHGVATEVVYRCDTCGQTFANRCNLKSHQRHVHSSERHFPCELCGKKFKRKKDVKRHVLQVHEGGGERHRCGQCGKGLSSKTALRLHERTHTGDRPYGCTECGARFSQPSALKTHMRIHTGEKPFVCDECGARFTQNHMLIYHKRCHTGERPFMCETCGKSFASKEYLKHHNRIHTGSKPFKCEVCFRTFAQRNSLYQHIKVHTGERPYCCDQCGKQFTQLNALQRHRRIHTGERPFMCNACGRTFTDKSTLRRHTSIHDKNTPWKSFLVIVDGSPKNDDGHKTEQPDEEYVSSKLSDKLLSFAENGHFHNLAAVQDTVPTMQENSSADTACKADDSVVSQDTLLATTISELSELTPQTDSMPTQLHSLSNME
# UniProt Q9BZV1: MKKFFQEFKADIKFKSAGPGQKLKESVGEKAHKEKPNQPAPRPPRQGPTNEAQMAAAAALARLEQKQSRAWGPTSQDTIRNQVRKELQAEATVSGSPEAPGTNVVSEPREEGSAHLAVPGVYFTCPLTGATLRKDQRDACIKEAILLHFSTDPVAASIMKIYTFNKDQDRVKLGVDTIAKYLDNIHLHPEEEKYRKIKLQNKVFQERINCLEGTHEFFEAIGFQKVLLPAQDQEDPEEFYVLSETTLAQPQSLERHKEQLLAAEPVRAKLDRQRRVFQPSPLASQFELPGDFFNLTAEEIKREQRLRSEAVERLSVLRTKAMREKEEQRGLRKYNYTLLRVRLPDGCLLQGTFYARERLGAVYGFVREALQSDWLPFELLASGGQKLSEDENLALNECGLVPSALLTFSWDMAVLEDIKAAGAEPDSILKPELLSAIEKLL
# UniProt Q9H1D9: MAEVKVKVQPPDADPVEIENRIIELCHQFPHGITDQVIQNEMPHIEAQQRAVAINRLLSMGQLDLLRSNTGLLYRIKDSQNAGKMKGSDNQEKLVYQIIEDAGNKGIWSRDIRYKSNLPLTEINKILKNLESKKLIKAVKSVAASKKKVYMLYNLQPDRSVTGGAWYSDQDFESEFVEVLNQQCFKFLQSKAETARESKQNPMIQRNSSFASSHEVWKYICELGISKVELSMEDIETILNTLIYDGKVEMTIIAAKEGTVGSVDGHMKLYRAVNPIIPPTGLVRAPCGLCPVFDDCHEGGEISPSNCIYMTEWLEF
# UniProt Q9H0A6: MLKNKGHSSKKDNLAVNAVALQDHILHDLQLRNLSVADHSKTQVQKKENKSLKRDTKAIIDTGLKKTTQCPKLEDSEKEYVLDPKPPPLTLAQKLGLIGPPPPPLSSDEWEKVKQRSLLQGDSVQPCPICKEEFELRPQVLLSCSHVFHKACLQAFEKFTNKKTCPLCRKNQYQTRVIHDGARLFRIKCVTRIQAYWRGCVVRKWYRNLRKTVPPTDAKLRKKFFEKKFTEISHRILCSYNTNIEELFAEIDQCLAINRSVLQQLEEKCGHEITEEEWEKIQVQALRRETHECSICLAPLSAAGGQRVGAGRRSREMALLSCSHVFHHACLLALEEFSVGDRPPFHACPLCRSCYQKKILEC
# UniProt Q9H081: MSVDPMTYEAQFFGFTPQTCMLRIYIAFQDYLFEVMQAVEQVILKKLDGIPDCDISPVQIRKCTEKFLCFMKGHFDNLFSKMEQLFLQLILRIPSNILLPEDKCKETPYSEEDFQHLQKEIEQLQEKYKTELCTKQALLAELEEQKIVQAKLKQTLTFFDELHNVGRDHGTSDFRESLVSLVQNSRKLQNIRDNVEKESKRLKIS
# UniProt Q9BWU0: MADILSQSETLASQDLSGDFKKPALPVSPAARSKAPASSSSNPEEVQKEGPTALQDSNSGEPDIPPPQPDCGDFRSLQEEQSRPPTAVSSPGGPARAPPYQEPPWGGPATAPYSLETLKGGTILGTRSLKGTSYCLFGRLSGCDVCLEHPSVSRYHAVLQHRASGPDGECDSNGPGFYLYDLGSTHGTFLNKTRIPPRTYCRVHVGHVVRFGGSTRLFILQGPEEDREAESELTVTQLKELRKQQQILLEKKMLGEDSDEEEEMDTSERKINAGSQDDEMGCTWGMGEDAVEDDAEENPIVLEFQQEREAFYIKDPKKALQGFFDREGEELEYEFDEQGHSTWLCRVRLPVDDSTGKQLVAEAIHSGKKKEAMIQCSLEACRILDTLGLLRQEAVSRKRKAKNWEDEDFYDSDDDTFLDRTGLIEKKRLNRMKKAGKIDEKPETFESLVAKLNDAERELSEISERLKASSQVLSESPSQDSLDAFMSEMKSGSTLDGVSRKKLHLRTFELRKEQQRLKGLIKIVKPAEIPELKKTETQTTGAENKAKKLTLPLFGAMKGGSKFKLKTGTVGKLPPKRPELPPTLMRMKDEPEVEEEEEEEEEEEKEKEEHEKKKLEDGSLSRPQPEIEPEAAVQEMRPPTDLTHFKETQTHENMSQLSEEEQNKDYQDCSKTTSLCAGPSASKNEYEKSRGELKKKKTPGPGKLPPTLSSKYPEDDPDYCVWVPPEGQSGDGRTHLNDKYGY
# UniProt Q9H1J7: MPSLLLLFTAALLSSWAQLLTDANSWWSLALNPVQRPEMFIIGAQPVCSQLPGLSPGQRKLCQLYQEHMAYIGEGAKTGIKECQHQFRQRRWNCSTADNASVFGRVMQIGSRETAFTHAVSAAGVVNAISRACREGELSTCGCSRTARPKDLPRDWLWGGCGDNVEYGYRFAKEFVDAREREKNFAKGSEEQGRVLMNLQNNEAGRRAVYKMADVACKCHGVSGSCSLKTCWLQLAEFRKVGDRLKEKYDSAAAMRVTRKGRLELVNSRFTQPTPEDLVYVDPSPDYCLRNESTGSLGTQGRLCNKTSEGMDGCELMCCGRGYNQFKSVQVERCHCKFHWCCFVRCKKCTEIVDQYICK
# UniProt Q9BZQ8: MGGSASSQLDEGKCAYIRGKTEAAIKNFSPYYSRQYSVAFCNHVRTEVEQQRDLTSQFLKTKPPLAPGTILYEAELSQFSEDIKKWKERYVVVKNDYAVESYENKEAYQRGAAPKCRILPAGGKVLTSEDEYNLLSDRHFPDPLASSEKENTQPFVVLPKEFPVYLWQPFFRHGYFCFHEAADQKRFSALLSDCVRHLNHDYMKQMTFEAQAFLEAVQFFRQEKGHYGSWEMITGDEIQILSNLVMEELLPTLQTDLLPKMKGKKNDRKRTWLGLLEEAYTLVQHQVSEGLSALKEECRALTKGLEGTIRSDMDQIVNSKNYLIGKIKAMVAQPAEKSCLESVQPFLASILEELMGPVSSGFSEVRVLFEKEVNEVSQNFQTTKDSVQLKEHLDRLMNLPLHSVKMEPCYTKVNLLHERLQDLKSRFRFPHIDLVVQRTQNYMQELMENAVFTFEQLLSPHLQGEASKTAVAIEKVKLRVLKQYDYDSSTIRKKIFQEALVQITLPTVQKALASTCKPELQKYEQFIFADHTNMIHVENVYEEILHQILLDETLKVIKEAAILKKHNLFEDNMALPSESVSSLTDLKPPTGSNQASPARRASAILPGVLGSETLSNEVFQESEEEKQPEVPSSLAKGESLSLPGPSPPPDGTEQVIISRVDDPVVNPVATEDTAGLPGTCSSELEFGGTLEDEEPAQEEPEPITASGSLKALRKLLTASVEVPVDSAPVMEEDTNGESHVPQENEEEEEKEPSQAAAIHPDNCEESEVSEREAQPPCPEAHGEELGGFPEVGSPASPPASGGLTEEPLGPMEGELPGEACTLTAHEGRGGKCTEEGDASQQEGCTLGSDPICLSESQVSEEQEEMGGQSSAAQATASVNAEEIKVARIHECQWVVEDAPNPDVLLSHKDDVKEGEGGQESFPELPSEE
# UniProt Q9BX63: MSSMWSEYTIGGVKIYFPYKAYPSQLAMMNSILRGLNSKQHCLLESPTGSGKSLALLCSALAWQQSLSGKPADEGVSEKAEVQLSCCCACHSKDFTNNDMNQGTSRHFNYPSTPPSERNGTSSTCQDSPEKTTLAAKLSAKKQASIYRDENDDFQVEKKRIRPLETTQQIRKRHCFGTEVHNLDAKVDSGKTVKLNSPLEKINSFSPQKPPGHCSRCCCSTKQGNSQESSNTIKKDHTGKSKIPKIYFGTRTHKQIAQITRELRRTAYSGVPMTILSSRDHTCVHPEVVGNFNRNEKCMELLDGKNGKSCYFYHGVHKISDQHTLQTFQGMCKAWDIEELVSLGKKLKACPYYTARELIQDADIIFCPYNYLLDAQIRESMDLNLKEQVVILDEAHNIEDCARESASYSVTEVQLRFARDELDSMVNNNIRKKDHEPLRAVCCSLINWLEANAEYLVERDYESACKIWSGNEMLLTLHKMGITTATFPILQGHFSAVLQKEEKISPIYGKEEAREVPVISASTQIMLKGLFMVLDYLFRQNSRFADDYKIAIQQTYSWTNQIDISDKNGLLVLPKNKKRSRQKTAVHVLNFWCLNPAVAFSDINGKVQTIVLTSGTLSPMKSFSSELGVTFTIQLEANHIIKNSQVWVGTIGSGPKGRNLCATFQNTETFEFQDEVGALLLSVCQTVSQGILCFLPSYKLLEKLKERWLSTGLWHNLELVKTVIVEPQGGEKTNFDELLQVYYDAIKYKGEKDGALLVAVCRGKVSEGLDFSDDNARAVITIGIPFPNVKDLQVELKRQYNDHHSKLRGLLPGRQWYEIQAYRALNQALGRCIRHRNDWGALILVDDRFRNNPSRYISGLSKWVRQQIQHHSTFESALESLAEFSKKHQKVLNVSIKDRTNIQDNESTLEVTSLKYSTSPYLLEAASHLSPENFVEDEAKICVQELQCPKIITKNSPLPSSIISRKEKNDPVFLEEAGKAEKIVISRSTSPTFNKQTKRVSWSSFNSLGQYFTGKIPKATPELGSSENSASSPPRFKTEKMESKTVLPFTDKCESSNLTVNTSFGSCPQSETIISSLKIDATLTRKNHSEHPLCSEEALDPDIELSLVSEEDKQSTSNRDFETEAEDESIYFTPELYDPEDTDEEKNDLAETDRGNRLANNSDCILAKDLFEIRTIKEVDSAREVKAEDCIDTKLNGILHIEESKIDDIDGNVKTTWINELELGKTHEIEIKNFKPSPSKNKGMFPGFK
# UniProt Q9BXW7: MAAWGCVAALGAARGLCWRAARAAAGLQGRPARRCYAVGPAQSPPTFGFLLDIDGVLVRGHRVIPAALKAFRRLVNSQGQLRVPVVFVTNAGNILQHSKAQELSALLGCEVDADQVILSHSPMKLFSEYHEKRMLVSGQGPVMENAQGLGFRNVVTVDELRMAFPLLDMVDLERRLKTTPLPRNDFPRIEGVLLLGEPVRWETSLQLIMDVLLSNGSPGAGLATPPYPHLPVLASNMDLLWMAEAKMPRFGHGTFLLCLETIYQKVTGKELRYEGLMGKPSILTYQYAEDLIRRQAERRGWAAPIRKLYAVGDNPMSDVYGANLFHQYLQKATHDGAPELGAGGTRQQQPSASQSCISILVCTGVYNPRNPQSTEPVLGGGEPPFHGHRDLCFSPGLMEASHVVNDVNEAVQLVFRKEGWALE
# UniProt Q9C0F1: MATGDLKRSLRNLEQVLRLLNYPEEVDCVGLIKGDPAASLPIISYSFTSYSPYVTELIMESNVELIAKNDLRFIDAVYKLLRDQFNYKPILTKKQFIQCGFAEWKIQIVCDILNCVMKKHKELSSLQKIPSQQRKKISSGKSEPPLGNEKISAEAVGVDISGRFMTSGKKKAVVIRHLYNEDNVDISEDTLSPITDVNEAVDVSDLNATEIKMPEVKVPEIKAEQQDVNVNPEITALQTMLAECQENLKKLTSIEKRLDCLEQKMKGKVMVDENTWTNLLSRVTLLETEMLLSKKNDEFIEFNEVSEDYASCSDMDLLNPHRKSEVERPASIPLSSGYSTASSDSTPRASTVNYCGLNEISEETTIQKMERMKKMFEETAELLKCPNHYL
# Some of the results follow. Most values lie at the level of the controls, where differences are scatter.
# Compound: CN[C@@H]1C[C@H]2O[C@@](C)([C@@H]1OC)n1c3ccccc3c3c4c(c5c6ccccc6n2c5c31)C(=O)NC4 [staurosporine]
# Test: log2 fold change of tryptic peptide abundance, ligand vs vehicle (limited proteolysis) (log2 ratio); higher = more trypsin-susceptible (destabilized)
# Conditions: ligand concentration: 20 uM; sample: K562 cleared lysate; digestion: 4 min, 22 C (HT-PELSA RT4min, Orbitrap Astral)
row,Target,log2 fold change
1,"POLDIP3 (peptide sequence: INVVNNHQAK, peptide start residue: 169) (UniProt Q9BY77)",0.37
2,"GZF1 (peptide sequence: NDDGHKTEQPDEEYVSSK, peptide start residue: 616) (UniProt Q9H116)",-0.274
3,"DPH1 (peptide sequence: GKVQEGSARPPSAVACEDCSCR, peptide start residue: 413) (UniProt Q9BZG8)",-0.278
4,"UniProt Q9H1B7 (peptide sequence: RNSSSPVSPASVPGQR, peptide start residue: 655)",-1.09
5,"KLF16 (peptide sequence: GRPGPEGAGPAAGLDVR, peptide start residue: 28) (UniProt Q9BXK1)",0.263
6,"TRIOBP (peptide sequence: LSDSNKENALHSYSTQK, peptide start residue: 1897) (UniProt Q9H2D6)",-0.799
7,"LSM14B (peptide sequence: KLNFKDDK, peptide start residue: 274) (UniProt Q9BX40)",0.597
8,"UBXN6 (peptide sequence: YLDNIHLHPEEEKYR, peptide start residue: 181) (UniProt Q9BZV1)",-0.391
9,"BOLA2 (peptide sequence: VLVVSAKFEGKPLLQR, peptide start residue: 37) (UniProt Q9H3K6)",-0.156
10,"NACA4P (peptide sequence: NILFVITKPDVYK, peptide start residue: 1964) (UniProt Q9BZK3)",-0.109
11,"RAB11FIP5 (peptide sequence: GGPILGASPHHSSSGEEK, peptide start residue: 487) (UniProt Q9BXF6)",0.161
12,"POLR3F (peptide sequence: EGTVGSVDGHMK, peptide start residue: 257) (UniProt Q9H1D9)",0.432
13,"UniProt Q9H0A6 (peptide sequence: PPPLTLAQK, peptide start residue: 86)",-0.0253
14,"MIS12 (peptide sequence: DNVEKESK, peptide start residue: 193) (UniProt Q9H081)",-0.809
15,"VPS11 (peptide sequence: DSSKLEEFIK, peptide start residue: 466) (UniProt Q9H270)",-0.841
16,"FAM126A (peptide sequence: LIYVSER, peptide start residue: 491) (UniProt Q9BYI3)",0.182
17,"SLC4A1AP (peptide sequence: LPPKRPELPPTLMR, peptide start residue: 627) (UniProt Q9BWU0)",-0.675
18,"UniProt Q9H1J7 (peptide sequence: ETAFTHAVSAAGVVNAISR, peptide start residue: 113)",0.0966
19,"BCL2L13 (peptide sequence: QMLLELTR, peptide start residue: 162) (UniProt Q9BXK5)",0.397
20,"UBE2O (peptide sequence: DHSMEDPDK, peptide start residue: 409) (UniProt Q9C0C9)",0.749
21,"UniProt Q9BZQ8 (peptide sequence: AMVAQPAEK, peptide start residue: 329)",0.306
22,"BRIP1 (peptide sequence: ISDQHTLQTFQGMCK, peptide start residue: 319) (UniProt Q9BX63)",0.619
23,"UniProt Q9BXW7 (peptide sequence: NVVTVDELR, peptide start residue: 153)",0.265
24,"BLZF1 (peptide sequence: NTAQLSEQLER, peptide start residue: 197) (UniProt Q9H2G9)",0.556
25,"UniProt Q9C0F1 (peptide sequence: DQFNYKPILTK, peptide start residue: 83)",-0.385
26,"GAN (peptide sequence: EVISLEKLNVGNER, peptide start residue: 180) (UniProt Q9H2C0)",0.548
27,"ISCU (peptide sequence: GKTVEEALTIK, peptide start residue: 111) (UniProt Q9H1K1)",0.344
28,"BTBD2 (peptide sequence: AEEAAGPGAAALQR, peptide start residue: 77) (UniProt Q9BX70)",0.131

# Looked up one by one from the entries so far:
row,Target,log2 fold change
28,"BTBD2 (peptide sequence: AEEAAGPGAAALQR, peptide start residue: 77) (UniProt Q9BX70)",0.131
6,"TRIOBP (peptide sequence: LSDSNKENALHSYSTQK, peptide start residue: 1897) (UniProt Q9H2D6)",-0.799
